Data published in article PMC8136516.
Results are given in words; binding and its absence hold for the method and conditions named. Binding seen in cells or lysates may run through a third protein. Some results given as binding are weak or reduced against the parent protein; the word gives no strength.

By UniProt entry, the sequences of proteins in these tests, tags left out. Residues count along the entry.
UniProt P56817, residues 46-501: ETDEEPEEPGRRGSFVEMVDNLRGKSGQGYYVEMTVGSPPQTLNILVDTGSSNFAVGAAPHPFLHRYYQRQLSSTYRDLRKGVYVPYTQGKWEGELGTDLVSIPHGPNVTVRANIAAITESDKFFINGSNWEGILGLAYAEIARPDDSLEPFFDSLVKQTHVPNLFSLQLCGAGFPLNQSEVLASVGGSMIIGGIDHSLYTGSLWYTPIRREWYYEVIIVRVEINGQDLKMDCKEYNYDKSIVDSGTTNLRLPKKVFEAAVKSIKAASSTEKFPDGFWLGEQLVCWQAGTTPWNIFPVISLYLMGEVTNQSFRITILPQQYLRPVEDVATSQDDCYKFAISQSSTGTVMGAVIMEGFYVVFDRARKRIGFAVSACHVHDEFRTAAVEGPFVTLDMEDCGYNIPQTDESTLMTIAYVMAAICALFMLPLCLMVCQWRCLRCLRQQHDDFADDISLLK
UniProt P14136: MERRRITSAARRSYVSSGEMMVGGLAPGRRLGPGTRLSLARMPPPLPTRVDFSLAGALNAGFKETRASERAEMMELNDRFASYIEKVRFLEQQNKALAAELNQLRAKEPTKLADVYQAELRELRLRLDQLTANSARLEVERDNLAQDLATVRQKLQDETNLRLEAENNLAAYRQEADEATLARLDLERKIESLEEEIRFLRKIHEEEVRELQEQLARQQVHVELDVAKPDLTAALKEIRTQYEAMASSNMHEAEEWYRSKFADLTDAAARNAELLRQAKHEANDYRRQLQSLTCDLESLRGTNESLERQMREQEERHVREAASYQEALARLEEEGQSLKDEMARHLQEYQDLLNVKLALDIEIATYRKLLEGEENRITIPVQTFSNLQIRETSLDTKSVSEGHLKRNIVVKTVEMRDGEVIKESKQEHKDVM

Target: β-site amyloid precursor protein-cleaving enzyme 1 (BACE1) (human (endogenous in postmortem brain tissue)) (UniProt P56817)
Test: co-IP; 200 ug total protein of human brain tissue lysate (1% NP40, 100 mM NaCl, 10 mM Tris pH 7.4) incubated overnight at 4°C with anti-BACE1 antibody, Protein G Sepharose beads, three washes; blot with anti-GFAP; IgG as negative control; control, FAD, SAD and CADASIL cases

binding: binds
Substance: Glial Fibrillary Acid Protein (GFAP) (from UniProt P14136 1-432)
